{
  "source": "patent US20260232759A1",
  "about": "“PEPTIDES THAT INHIBIT INFECTION BY SARS-COV-2, THE VIRUS THAT CAUSES COVID-19 DISEASE” (Wisconsin Alumni Research Foundation, priority 2021, published 2026)",
  "origin": "cited, not measured here",
  "system": "CoV2",
  "conditions": "cited from earlier work",
  "note": "At least one peptide structure holds a part that was inferred or is arguable (an end, a ring closure or a residue).",
  "data": [
    {"smiles": "CC[C@H](C)[C@H](NC(=O)[C@H](C)NC(=O)[C@H](CCC(=O)O)NC(=O)[C@H](CCC(=O)O)NC(=O)[C@H](CC(C)C)NC(=O)[C@H](CCCCN)NC(=O)[C@H](CCCCN)NC(=O)[C@H](CCSC)NC(=O)[C@H](CCC(=O)O)NC(=O)[C@H](Cc1ccc(O)cc1)NC(=O)[C@H](CCC(=O)O)NC(=O)[C@H](CC(C)C)NC(=O)[C@H](CC(=O)O)NC(=O)[C@H](CC(C)C)NC(=O)[C@H](Cc1ccccc1)NC(=O)[C@@H](NC(=O)[C@@H](NC(=O)[C@H](CC(N)=O)NC(=O)[C@@H](NC(=O)[C@H](CCC(N)=O)NC(=O)[C@H](CC(=O)O)NC(=O)[C@H](CC(C)C)NC(=O)[C@@H](N)CO)[C@@H](C)CC)C(C)C)[C@@H](C)O)C(=O)N[C@@H](CCCCN)C(=O)N[C@@H](CCCCN)C(=O)N[C@@H](CC(C)C)C(=O)N[C@@H](CCC(=O)O)C(=O)N[C@@H](CCC(=O)O)C(=O)N[C@@H](CO)C(=O)N[C@@H](Cc1ccc(O)cc1)C(=O)N[C@H](C(=O)N[C@@H](CC(=O)O)C(=O)N[C@@H](CC(C)C)C(=O)N[C@@H](CCCCN)C(=O)N[C@@H](CCC(=O)O)C(=O)N[C@@H](CC(C)C)C(N)=O)[C@@H](C)CC", "note": "[EK1]", "values": [
      {"measurement": "inhibition to CoV2 infection (reported)", "result": "display inhibition to CoV2 infection"}
    ]}
  ]
}
